Results are given in words; binding and its absence hold for the method and conditions named. Some entries that bind do so weakly or less than the wild type. For part of these data: Where a sequence is shown, tags or fusion partners need not be part of it.
How the values were obtained:
[1] = target: mLcn2-Fc (unmodified, without N-terminal mask) (human); test: phage ELISA on immobilized mLcn2-Fc, triplicates; wells with mLcn2-Fc pre-complexed with CTLA-4-Fc and PBS wells as controls
[2] = target: mLcn2-Fc (unmodified, without N-terminal mask) (human); test: phage ELISA on immobilized mLcn2-Fc; Complex = Lcn2-Fc pre-complexed with CTLA4-Fc, Blank = PBS
[3] = target: mLcn2-Fc (unmodified, without N-terminal mask) (human); test: phage ELISA, triplicates; competitor CTLA-4-Fc
[4] = target: mLcn2-Fc (unmodified, without N-terminal mask) (human); test: phage ELISA, 18 min substrate incubation; competitor CTLA4-Fc
[5] = target: Monomeric extracellular CTLA-4 (Homo sapiens (Human)) (UniProt P16410); test: SPR; monomeric CTLA-4 chemically tethered to the chip
[6] = target: human CTLA4-Fc transiently expressed by Tni insect cells (human) (UniProt P16410); test: flow cytometry, AF647-labeled construct on Tni insect cells induced to express human CTLA4-Fc; uninfected cells as negative control
[7] = target: Monomeric extracellular CTLA-4 (Homo sapiens (Human)) (UniProt P16410); test: SPR, analyte over immobilized monomeric CTLA-4
[8] = target: Monomeric extracellular CTLA-4 (Homo sapiens (Human)) (UniProt P16410); test: SPR, analyte over monomeric extracellular CTLA-4 immobilized at low density on a CM5 chip, baseline subtracted
[9] = target: human CTLA4-Fc transiently expressed by Tni insect cells (human) (UniProt P16410); test: flow cytometry; Alexa Fluor-647 conjugate on Tni insect cells expressing human CTLA4-Fc
[10] = target: CTLA-4 on murine regulatory T-cells (splenocytes of Foxp3gfp/KI DBA/2 mice) (mouse) (UniProt P09793); test: flow cytometry; Alexa Fluor 647-labeled construct on murine regulatory T-cells (GFP+), four experiments on two spleens
[11] = target: CTLA-4 on murine regulatory T-cells (splenocytes of Foxp3gfp/KI DBA/2 mice) (mouse) (UniProt P09793); test: flow cytometry, AF647-labeled construct on splenocytes of Foxp3gfp/KI DBA/2 mice, gated on DAPI-negative GFP+ regulatory T-cells
[12] = target: CTLA-4 on murine regulatory T-cells (splenocytes of Foxp3gfp/KI DBA/2 mice) (mouse) (UniProt P09793); test: flow cytometry, AF647-labeled construct on splenocytes of Foxp3gfp/KI DBA/2 mice, gated on regulatory T cells
[13] = target: CTLA-4 on murine regulatory T-cells (splenocytes of Foxp3gfp/KI DBA/2 mice) (mouse) (UniProt P09793); test: flow cytometry; AF647-labeled construct on gated regulatory T cells of mouse splenocytes
[14] = target: mLcn2-Fc (unmodified, without N-terminal mask) (human); test: phage ELISA on immobilized mLcn2-Fc, 18 min substrate incubation; Complex = Lcn2-Fc pre-complexed with CTLA4-Fc, Blank = PBS

The chains behind the UniProt entries cited, without tags or fusion partners. Residues count along the entry.
UniProt P16410, residues 36-161: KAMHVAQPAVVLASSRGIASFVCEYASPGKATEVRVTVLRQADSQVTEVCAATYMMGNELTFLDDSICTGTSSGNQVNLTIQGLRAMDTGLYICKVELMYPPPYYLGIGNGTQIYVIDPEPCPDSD
UniProt P09793, residues 36-223: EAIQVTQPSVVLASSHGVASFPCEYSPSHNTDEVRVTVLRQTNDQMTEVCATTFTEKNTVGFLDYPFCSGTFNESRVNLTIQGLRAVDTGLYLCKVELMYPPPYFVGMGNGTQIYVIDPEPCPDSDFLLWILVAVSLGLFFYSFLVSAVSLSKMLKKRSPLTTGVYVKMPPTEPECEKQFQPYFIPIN

Measured: binding

B1: Phage clone 16, surface-bound peptide WSPLPFM (peptide)
peptide: WSPLPFM
binds: [1] | [2] | [3] | [4]

B2: mLcn2-Fc (unmodified, without N-terminal mask) (Fc fusion)
chain: QDSTSDLIPAPPLSKVPLQQNFQDNQFHGKWYVVGLAGNRILRDDQHPMNMYATIYELKEDKSYNVTSVISSHKKCEYTIATFVPGSQPGEFTLGNIKSYGDKTSYLVRVVSTDYNQYAVVFFKLAEDNAEFFAITIYGRTKELASELKENFIRFSKSLGLPENHIVFPVPIDQCIDG
notes: also called dimeric mLCN2-Fc; unmodified mLcn2-Fc; not shown: flexible linker between mLcn2 and Fc; human IgG1 Fc domain
binds: [5] | [6] | [7] | [8] | [9] | [10] | [11] | [12] | [13]

B3: Unmasked mLcn2-Fc (masked mLcn2-Fc treated with MMP9) (Fc fusion, not shown: small tags and cut ends; a dimerising Fc or GST)
chain: B2 chain
binds: [5] | [6] | [7] | [8] | [9] | [10] | [11] | [12] | [13]

B4: Phage clone 1, surface-bound peptide YGLGFNF (peptide)
peptide: YGLGFNF
binds: [14] | [4]

B5: Phage clone 2, surface-bound peptide RIDETLQ (peptide)
peptide: RIDETLQ
binds: [14] | [4]

B6: Phage clone 3, surface-bound peptide FTPWPEA (peptide)
peptide: FTPWPEA
binds: [2] | [4]

B7: Phage clone 4, surface-bound peptide WPEWDLW (peptide)
peptide: WPEWDLW
binds: [2] | [4]

B8: Phage clone 6, surface-bound peptide EKWFRFM (peptide)
peptide: EKWFRFM
binds: [14] | [4]

B9: Phage clone 8, surface-bound peptide YLELMHS (peptide)
peptide: YLELMHS
binds: [2] | [4]

B10: Phage clone 12, surface-bound peptide SVLPPFM (peptide)
peptide: SVLPPFM
binds: [2] | [4]
